US20220144895A1, “DE NOVO DESIGN OF TUNABLE PH-DRIVEN CONFORMATIONAL SWITCHES” (University of Washington, priority 2019, published 2022)
Numbering of substitutions follows the chain as printed. Names may count otherwise. Some entries repeat one wording, which the source may state once for all of them.

B1: pRO-2 A54M: pRO-2 mutant, SEQ ID NO: 19-20 (protein)
chain 1: MGSHHHHHHGSGSENLYFQGSEYEIRKALEELKAATAELKRATASLRAITEELKKNPSEDALVEHNRAIVEHNMIIVEHNRIIAAVLELIVRAIK
chain 2: GSEYEIRKALEELKAATAELKRATASLRAITEELKKNPSEDALVEHNRAIVEHNMIIVEHNRIIAAVLELIVRAIK
B2: pRO-2.5: pRO-2 variant, SEQ ID NO: 11-12 (protein)
chain 1: B1 chain 1 with A35S, I49S, H65N, A68L, M74A, H79N
chain 2: SEYEIRKALEELKASTAELKRATASLRASTEELKKNPSEDALVENNRLIVEHNAIIVENNRIIAAVLELIVRAIK
B3: pRO-2.3: pRO-2 variant, SEQ ID NO: 7-8 (protein)
chain 1: B1 chain 1 with A35S, M74A, H79N
chain 2: B2 chain 2 with S29I, N45H, L48A
B4: pRO-4: designed heterodimer, SEQ ID NO: 27-28, chains 81 and 82 (protein)
chain 1: MDEEDHLKKLKTHLEKLERHLKLLEDHAKKLEDILKERPEDSAVKESIDELRRSIELVRESIEIFRQSVEEEEGSSHHHHHHSSGENLYFQGDVKELTKILDTLTKILETATKVIKDATKLLEEHRKSDKPDPRLIETHKKLVEEHETLVRQHKELAEEHLKRTR
chain 2: MDEEDHLKKLKTHLEKLERHLKLLEDHAKKLEDILKERPEDSAVKESIDELRRSIELVRESIEIFRQSVEEEEGDVKELTKILDTLTKILETATKVIKDATKLLEEHRKSDKPDPRLIETHKKLVEEHETLVRQHKELAEEHLKRTR
chain 3: MDEEDHLKKLKTHLEKLERHLKLLEDHAKKLEDILKERPEDSAVKESIDELRRSIELVRESIEIFRQSVEEEE
chain 4: GSSHHHHHHSSGENLYFQGDVKELTKILDTLTKILETATKVIKDATKLLEEHRKSDKPDPRLIETHKKLVEEHETLVRQHKELAEEHLKRTR
modifications: Synthetic polpypeptide; (1)..(18) Optional residues
B5: pRO-5: designed heterodimer, SEQ ID NO: 31-32, 85-86 (protein)
chain 1: MTKEDILERQRKIIERAQEIHRRQQEILKEQEKIIRKPGSSEEAMKRSLKLIEESLRLLKELLELSEESAQLLYEQRGSSHHHHHHSSGENLYFQGTEKRLLEEAERAHREQKEIIKKAQELHKELTKIHQQSGSSEEAKKRALKISQEIRELSKRSLELLREILYLSQEQK
chain 2: MTKEDILERQRKIIERAQEIHRRQQEILKEQEKIIRKPGSSEEAMKRSLKLIEESLRLLKELLELSEESAQLLYEQRGTEKRLLEEAERAHREQKEIIKKAQELHKELTKIHQQSGSSEEAKKRALKISQEIRELSKRSLELLREILYLSQEQK
chain 3: MTKEDILERQRKIIERAQEIHRRQQEILKEQEKIIRKPGSSEEAMKRSLKLIEESLRLLKELLELSEESAQLLYEQR
chain 4: GSSHHHHHHSSGENLYFQGTEKRLLEEAERAHREQKEIIKKAQELHKELTKIHQQSGSSEEAKKRALKISQEIRELSKRSLELLREILYLSQEQK
modifications: Synthetic polpypeptide; (1)..(18) Optional residues
B6: pRO-2: designed pH-responsive homotrimer, SEQ ID NO: 1-2 (protein)
chain 1: B1 chain 1 with M74A
chain 2: B2 chain 2 with S15A, S29I, N45H, L48A, N59H
B7: pRO-2.1: pRO-2 variant, SEQ ID NO: 3-4 (protein)
chain 1: B1 chain 1 with T36L, M74A, H79V, N80L
chain 2: B2 chain 2 with S15A, T16L, S29I, N45H, L48A, N59V, N60L
B8: pRO-2.4: pRO-2 variant, SEQ ID NO: 9-10 (protein)
chain 1: B1 chain 1 with I49S, H65N, A68L, M74A
chain 2: B2 chain 2 with S15A, N59H
B9: pRO-3: designed homotrimer, SEQ ID NO: 23-24 (protein)
chain 1: MGSHHHHHHGSGSENLYFQGSEALYELEKALRELKKATAALERATAELKKNPSEDALVEHNRLIAAHNKIIAEVLRIIAKVLK
chain 2: GSEALYELEKALRELKKATAALERATAELKKNPSEDALVEHNRLIAAHNKIIAEVLRIIAKVLK
B10: pRO-3.1: pRO-3 variant, SEQ ID NO: 25-26 (protein)
chain 1: B9 chain 1 with L31T, A39D, A40E, A46E, K49E, A66E, V74H, L75N
chain 2: B9 chain 2 with L12T, A20D, A21E, A27E, K30E, A47E, V55H, L56N
B11: pRO-2 I56V: pRO-2 mutant, SEQ ID NO: 17-18 (protein)
chain 1: B1 chain 1 with M74A, I76V
chain 2: B1 chain 2 with M55A, I57V

Experiment: Native mass spectrometry of pH-induced changes in oligomeric state
Type: physicochemical
Details: native MS at indicated pH
Protocol: Samples were buffer exchanged twice into 200 mM ammonium acetate (NH4Ac; MilliporeSigma) using Micro Bio-Spin P-6 columns (Bio-Rad). Protein concentrations were determined by UV absorbance using a Nanodrop 2000c spectrophotometer (Thermo Fisher Scientific) and diluted to make up a 10-fold stock solution (50 μM and 16.7 μM monomer and trimer concentration, respectively). 1 μL of this solution was mixed with 9 μL 200 mM NH4Ac/50 mM triethylammonium acetate (TEAA; MilliporeSigma), adjusted with acetic acid (Fisher Scientific) to obtain the desired final pH and incubated on ice for 30 min. […] 5 μL samples were filled into an in-house pulled glass capillary and ionized by nESI at a monomer or a trimer concentration of 5 μM or 1.67 μM respectively. All pH titration data were acquired on an in-house modified SYNAPT® G2 HDMS (Waters Corporation) with a surface-induced dissociation (SID) device incorporated between a truncated trap traveling wave ion guide and the ion mobility cell (39). The following instrument parameters were used spray voltage 0.9-1.3 kV; sampling cone, 20 V; extraction cone, 2 V; source temperature, room temperature; trap gas flow, 4 mL/min; trap bins, 45V. The data were processed with MassLynx™ v4.1 and DriftScope™ v2.1. For relative quantification, charge state series were extracted from DriftScope™, and smoothed spectra (mean; window 20; number of smooths 20) were integrated.
Python scripts were written to generate theoretical models according Equation 1, and curve-fitting to native mass spectrometry data (FIGS. 1, 3, 5) according to Equation 2 by nonlinear least squares using curve fit from scipy.optimize. The free energy estimates for individual n, m, and l layers used in Equation 1 modeling were estimated by solving linear equations as follows: values for the free energy of folding for designs pRO-2 and variants were estimated from GdmCl denaturation experiments (FIG. 11); each of these designs have different numbers of n, m, and l layers, thus series of linear equations relating the number of each layer type to the total free energies of folding were solved to estimate dG values of the individual layers of each type.

Molecule | dissociation pathway / intermediates during pH-induced disassembly
B1 | disassemble via tetramer as intermediate
B2 | directly dissociate into monomer at low pH
B3 | forms multiple higher-order oligomers besides tetramer at low pH prior to dissociation into monomer
B4 | predominantly directly dissociate into monomer at low pH
B5 | predominantly directly dissociate into monomer at low pH
B6 | disassemble via tetramer as intermediate
B7 | disassemble via tetramer as intermediate
B8 | disassemble via tetramer as intermediate
B9 | disassemble via tetramer as intermediate
B10 | disassemble via tetramer as intermediate
B11 | disassemble via tetramer as intermediate
